Paper PMC7819943, “Rice protein-binding microarrays: a tool to detect cis-acting elements near promoter regions in rice”
Some of the results follow.

The chains behind the UniProt entries cited, without tags or fusion partners.
UniProt Q0JBA9, entry or part of it: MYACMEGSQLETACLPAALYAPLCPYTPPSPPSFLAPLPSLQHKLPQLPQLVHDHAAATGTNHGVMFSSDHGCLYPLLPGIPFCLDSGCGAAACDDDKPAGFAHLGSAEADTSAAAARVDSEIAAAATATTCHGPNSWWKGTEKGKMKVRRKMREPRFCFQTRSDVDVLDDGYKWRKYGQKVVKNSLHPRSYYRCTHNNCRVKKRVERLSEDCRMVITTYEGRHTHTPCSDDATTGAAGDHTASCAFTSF

biological target: OsWRKY34 (Oryza sativa, UniProt Q0JBA9 1-250); assay: protein-binding microarray (RPBM); PBS, 2% BSA, 51.3 ng/ul salmon testes DNA, 50 uM zinc acetate, 200 nM TF, 25 C, 1 h; high values mean tight binding; settings: protein: recombinant; tags: N-terminal polyhistidine and DsRed monomer fusion (pET32a); label: CyDye5-dUTP incorporated in the synthesized complementary strand; 3' TTTTT single-stranded linker to array surface; dsDNA, one strand shown
Procedure, shortened: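 Ni–NTA purification followed expression in E. coli BL21-CodonPlus of transcription factors fused N-terminally to a polyhistidine tag and DsRed. At 200 nM in PBS with 2% BSA, salmon testes DNA and 50 µM zinc acetate, the protein was incubated for 1 h at 25 °C with a custom Agilent array that had been primer-extended with Cy5-dUTP and blocked with 2% BSA. After washing, the array was read on an Axon 4000B scanner. The binding signal is per-feature fluorescence intensity in arbitrary units.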

Sequence | binding signal
TGTTCAGATTTATTGTATTAGGGGTTATAGATTGGATTTTCGGAGTCACCTAGTGCAG | 11800 fluorescence intensity (a.u.)
CTCCATGCTTGTTGCATGTCTCTTTGCATATGCGCATGGCCGGAGTCACCTAGTGCAG | 8370 fluorescence intensity (a.u.)
GATCATGCCATGCTTTTCCTTCCCTGTCCTGCAAGATTCGCGGAGTCACCTAGTGCAG | 9100 fluorescence intensity (a.u.)
TTCGTTTTGCGTGCCGGGAAGGAGGGGTTCCCAACTCTTTCGGAGTCACCTAGTGCAG | 9350 fluorescence intensity (a.u.)
CCATTGCTTTCTTTTTTTCCTACAATACTTGCTTGCTTACCGGAGTCACCTAGTGCAG | 9480 fluorescence intensity (a.u.)
TTTTTTTCGTTTCACTATATATAAGTTAATTTTCATTTGTCGGAGTCACCTAGTGCAG | 8070 fluorescence intensity (a.u.)
CATTACAATTCGTCTATTCATAGCTGTGCCACTTAAATTTCGGAGTCACCTAGTGCAG | 9890 fluorescence intensity (a.u.)
ACGCACGCTCGATCGATCACTATCTCTCTTTCTCTTTCTTCGGAGTCACCTAGTGCAG | 11800 fluorescence intensity (a.u.)
CCCGACCGCCACCCACCGCCTTGCGCCCGGCCACCACCGCCGGAGTCACCTAGTGCAG | 10600 fluorescence intensity (a.u.)
ACGAACATTTCATTTCTTATATTTTTGCATAGTTTTTTTACGGAGTCACCTAGTGCAG | 8670 fluorescence intensity (a.u.)
GTCAGCGTCGGCGAGCTGCTCGGGGACGGCGGGGTGGAGGCGGAGTCACCTAGTGCAG | 11700 fluorescence intensity (a.u.)
AGTGCAGACACGATTCTCGCGTGTTTACTTTTCTACTTCTCGGAGTCACCTAGTGCAG | 9750 fluorescence intensity (a.u.)
GCGGAACGGGTGGGTTGTGGCTTGTGGGTCCCCAATTCACCGGAGTCACCTAGTGCAG | 9140 fluorescence intensity (a.u.)
GTAACCGGCCAGGCCAGCGGTCAGTCCCGCGTGCAACACCCGGAGTCACCTAGTGCAG | 8720 fluorescence intensity (a.u.)
CCTCCTGGCCCCACGCGCCCCACGCCACCTTGATACTCGCCGGAGTCACCTAGTGCAG | 9840 fluorescence intensity (a.u.)
ATGTGTCCTGATGTCCTCTCAACTCTCTAAGCTTGTTTTTCGGAGTCACCTAGTGCAG | 9700 fluorescence intensity (a.u.)
CCAACGTCTAAACCAACTTCATCTCTCTGGTTTATTTTGTCGGAGTCACCTAGTGCAG | 9760 fluorescence intensity (a.u.)
TCAGTTTATTTTATTTTATTTGTTTTGTTGGACTTTCTTGCGGAGTCACCTAGTGCAG | 11700 fluorescence intensity (a.u.)
ATATCCTTCTCAATTGTGCACATAGCCAAGCCATTTAACCCGGAGTCACCTAGTGCAG | 12100 fluorescence intensity (a.u.)
CACATTTAATTCAAATTTCTGTTCGTCTTACAGTCAGCTACGGAGTCACCTAGTGCAG | 8600 fluorescence intensity (a.u.)
CCTTTTCTTCCTTTTCTCTCTTTTCCCAGCCGCCACTGTTCGGAGTCACCTAGTGCAG | 9600 fluorescence intensity (a.u.)

Sequence | binding signal
CAAGTTGTTTTGTTTTTTGTCAGTCGTCAGGCAGCACACACGGAGTCACCTAGTGCAG | 10500 fluorescence intensity (a.u.)
GCCGCCGCCGCCGCCCGCGCCGATCCCCATCCATCCCGCACGGAGTCACCTAGTGCAG | 8970 fluorescence intensity (a.u.)
CCGTTTCATCTTTTCTTTAGCCTATATTGCAATTTTTGTACGGAGTCACCTAGTGCAG | 10500 fluorescence intensity (a.u.)
GACCCCATGTTCTTGTCTCCTCATGACACACTGGCCATGTCGGAGTCACCTAGTGCAG | 9670 fluorescence intensity (a.u.)
TATTTTCCTTCAGGGCTGTGGGCGGTGGGCCACAAAACATCGGAGTCACCTAGTGCAG | 8950 fluorescence intensity (a.u.)
TTTCTTTTGTGCTCTTCTTTCTGTCACAGATCATACACCCCGGAGTCACCTAGTGCAG | 8910 fluorescence intensity (a.u.)
TCACCCAACCAATCCGCCGCCGCCACCTCACCGCGCCAATCGGAGTCACCTAGTGCAG | 9000 fluorescence intensity (a.u.)
ACGATCAGTGTCATCACAGGGCGGCGGGGTTCCTATCCATCGGAGTCACCTAGTGCAG | 13200 fluorescence intensity (a.u.)
AGATCCCGCCGTGCAGATTGCTTCCGAGTCCTTAGCATTTCGGAGTCACCTAGTGCAG | 9760 fluorescence intensity (a.u.)
TTCTCATCTTGGTTTCTTCCTAGTTTCGGGAGAGGATTTTCGGAGTCACCTAGTGCAG | 9290 fluorescence intensity (a.u.)
GGACCCACTTCCAGCGGCTCTTCCACTCCACCACAACACACGGAGTCACCTAGTGCAG | 8370 fluorescence intensity (a.u.)
TCTTTTGAGTCTTTATCTCTCTTAAAATTTTTGTGTTTTTCGGAGTCACCTAGTGCAG | 14500 fluorescence intensity (a.u.)
GATGCAGATTGTGTCTCGCAGAAATTTCCTTCCTTGTTTCCGGAGTCACCTAGTGCAG | 10500 fluorescence intensity (a.u.)
ATGATCCGTGCTCCCTGATTTTGTTGACTAATCCAGACATCGGAGTCACCTAGTGCAG | 10100 fluorescence intensity (a.u.)
GTCATCCCACCCACTCACCCACCCACCCACCCTGATCGCACGGAGTCACCTAGTGCAG | 12600 fluorescence intensity (a.u.)
TCCGCTCGGATTCCGCTCTTCTTCTTCTTCTCCGTCTCCGCGGAGTCACCTAGTGCAG | 9100 fluorescence intensity (a.u.)
TAGCTAGTATTTTTCTATTTTTCTCGCTAATAAGGTTGACCGGAGTCACCTAGTGCAG | 9740 fluorescence intensity (a.u.)
TTATTATTATTCCAGATTTCCAGTGCTAATCTGCGCTTCTCGGAGTCACCTAGTGCAG | 8440 fluorescence intensity (a.u.)
GCCTCAGCTTTTTTACCACTCAGTTCGCATGCCCTCTATACGGAGTCACCTAGTGCAG | 13700 fluorescence intensity (a.u.)
GCCACCGTCCGATGCAGCCCACTTCCAAGTCGGAGAGCGCCGGAGTCACCTAGTGCAG | 8280 fluorescence intensity (a.u.)
GCTTGATGCGCATGGGTTGGGTCATCCTTTTGGCATGGCACGGAGTCACCTAGTGCAG | 12600 fluorescence intensity (a.u.)

Looked up above.
For binding signal, GACCCCATGTTCTTGTCTCCTCATGACACACTGGCCATGTCGGAGTCACCTAGTGCAG has the entry 9670 fluorescence intensity (a.u.)
For binding signal, GGACCCACTTCCAGCGGCTCTTCCACTCCACCACAACACACGGAGTCACCTAGTGCAG has the entry 8370 fluorescence intensity (a.u.)
For binding signal, GATGCAGATTGTGTCTCGCAGAAATTTCCTTCCTTGTTTCCGGAGTCACCTAGTGCAG has the entry 10500 fluorescence intensity (a.u.)
For binding signal, GCCTCAGCTTTTTTACCACTCAGTTCGCATGCCCTCTATACGGAGTCACCTAGTGCAG has the entry 13700 fluorescence intensity (a.u.)

The list continues.

Sequence | binding signal
CGCCACCAACCGCGCCGCCCACCGCCCACGACCTCCACGCCGGAGTCACCTAGTGCAG | 9050 fluorescence intensity (a.u.)
CCATGGCTTTCCCGTGCCCTGTACTTCTGTACACGAAACTCGGAGTCACCTAGTGCAG | 8380 fluorescence intensity (a.u.)
AACTAACATTACTATAATACAACCAATATATTTCCGTGCACGGAGTCACCTAGTGCAG | 8160 fluorescence intensity (a.u.)
AAGTCTAATTTATCTCCCTGTTGCTACAGTAGCTTCTTCACGGAGTCACCTAGTGCAG | 8880 fluorescence intensity (a.u.)
ACTCCACCTCCAATCGAACCCCACCCGCCGCCGCCGCCGGCGGAGTCACCTAGTGCAG | 10100 fluorescence intensity (a.u.)
TACCATATCAATTTCTTCTACTCGTGTGCAGTGGGATAATCGGAGTCACCTAGTGCAG | 8920 fluorescence intensity (a.u.)
GGGTAAGTAGTTTAATTCTTTAGTTTAGTGCACCAAGTGACGGAGTCACCTAGTGCAG | 8940 fluorescence intensity (a.u.)
TATCCCATTCTTTTTGTGTGCATTTTTCTTTCAGATCAATCGGAGTCACCTAGTGCAG | 13100 fluorescence intensity (a.u.)
AGTTTTTCAGGCTTCTGAACTTGCTCAGCTAGCCACTCTGCGGAGTCACCTAGTGCAG | 8520 fluorescence intensity (a.u.)
AAGTTATTGATGGTCAAAGTTATAAAAGTTTGACCTCAACCGGAGTCACCTAGTGCAG | 8840 fluorescence intensity (a.u.)
GGAGACAGATTATACCTGGTTTTGTGGCTGAGGGATACAACGGAGTCACCTAGTGCAG | 9420 fluorescence intensity (a.u.)
CTACACTTTCACACGAGTCTAGTCAAACACATATTGACCACGGAGTCACCTAGTGCAG | 10600 fluorescence intensity (a.u.)
AATTGGCTGGATATCCTGTTCTTCATGTAATCATGTCATGCGGAGTCACCTAGTGCAG | 8600 fluorescence intensity (a.u.)
GTAACTTCGGAACAATTGATTGTACTGTAGGGGTGGGATTCGGAGTCACCTAGTGCAG | 9250 fluorescence intensity (a.u.)
ACTGACCACAGCTCCAAAATTTCACTCTAAGCCTTACTACCGGAGTCACCTAGTGCAG | 10400 fluorescence intensity (a.u.)
CTGCTTTTTTATCTAACGTTTCACCATTCTTTTTCAAAAACGGAGTCACCTAGTGCAG | 11600 fluorescence intensity (a.u.)
TTTAGTAGCAATCGACGTCTTCCCATCCAACAAATTGCCTCGGAGTCACCTAGTGCAG | 8680 fluorescence intensity (a.u.)
TTTTTCTACGCATCTAGCCCTCTACATGTGTTTATATATTCGGAGTCACCTAGTGCAG | 8640 fluorescence intensity (a.u.)
CTCTCTCCGTCCTTAAGAAAAATGTCACATTCGTTTTACTCGGAGTCACCTAGTGCAG | 9240 fluorescence intensity (a.u.)
CCCCGCCGCCGCCGCCTCTCCAGCCATCGCCACCGCGCAACGGAGTCACCTAGTGCAG | 10200 fluorescence intensity (a.u.)
GTCCTTCTTGCAACCAACAGTCTGGCAAGGCCGTTACGTCCGGAGTCACCTAGTGCAG | 9230 fluorescence intensity (a.u.)

Sequence | binding signal
CAGACAGTGCTTCTTCCACATACATACGGCAGTCGTTGACCGGAGTCACCTAGTGCAG | 14100 fluorescence intensity (a.u.)
CCTCTTTCCATATTGCTTTTGGACTCTCCTTTCCTTTTCTCGGAGTCACCTAGTGCAG | 11000 fluorescence intensity (a.u.)
GATCCACGCCTCTCCCGCTCAAATCTCGGGGCGGGCCACCCGGAGTCACCTAGTGCAG | 10100 fluorescence intensity (a.u.)
CTGGTTTTTTTTCCACATTTAATACTCCATGCATGTATTTCGGAGTCACCTAGTGCAG | 8550 fluorescence intensity (a.u.)
AAATAAGAGTGACCGTTCTCGCATTCACTCCATCGCACCACGGAGTCACCTAGTGCAG | 9150 fluorescence intensity (a.u.)
AACACCGCCGCCGCTTGGCCATCTCCCCTGCCGACGACACCGGAGTCACCTAGTGCAG | 8950 fluorescence intensity (a.u.)
ACGTGCTGCGACCAATCAGCGGCTGCCAACTCAGCCGGCCCGGAGTCACCTAGTGCAG | 8390 fluorescence intensity (a.u.)
TCCTTTAATTCAAAGAGATCCTATACTTTCTTCATTCTAGCGGAGTCACCTAGTGCAG | 8260 fluorescence intensity (a.u.)
AAGGATATAAGGGTGGTTGAGGGGTAGAATAGGAAGAAATCGGAGTCACCTAGTGCAG | 9360 fluorescence intensity (a.u.)
ATTTTCTGTTTTGGTATTATTTTACGTTTGCCTGCATCTTCGGAGTCACCTAGTGCAG | 9660 fluorescence intensity (a.u.)
CGTTTCTATTTCCGCGGCCGCCTCCAACCACCCGCGAGGCCGGAGTCACCTAGTGCAG | 8260 fluorescence intensity (a.u.)
CGAGTGACGAGGTCTTGGGTTGGGGTAGGGGTGGGATGAGCGGAGTCACCTAGTGCAG | 19900 fluorescence intensity (a.u.)
GGGTATTAGTGGCGTGATTAATTTGGCGGGAGCAGCGATGCGGAGTCACCTAGTGCAG | 11700 fluorescence intensity (a.u.)
GTATCAGCACACAACACAACTGTAGTCCTGGAGCATTCTCCGGAGTCACCTAGTGCAG | 10200 fluorescence intensity (a.u.)
CCGATCGGTGGGGAGGGCTCTCTCTCTCTCTCTCTCTCTCCGGAGTCACCTAGTGCAG | 9170 fluorescence intensity (a.u.)
ATTTACAGTGTCATCTTTACTTATACACATCAAGAACAAACGGAGTCACCTAGTGCAG | 8640 fluorescence intensity (a.u.)
GCGGGGTTGATTTCTGACTGAGATTTTGTTTTTCTTTTCTCGGAGTCACCTAGTGCAG | 14000 fluorescence intensity (a.u.)
ATTGATTGTGTACGTTTTGCCCTTAATCCTTGTCAGCAGTCGGAGTCACCTAGTGCAG | 10200 fluorescence intensity (a.u.)
CTCTTGTTGGATGCCAGGTTTGTTCTCCATTTTTGCAATTCGGAGTCACCTAGTGCAG | 12000 fluorescence intensity (a.u.)
TGCTTCTCTCTTTTTACCATTGTTTTAACCCTTTTTTTTACGGAGTCACCTAGTGCAG | 8750 fluorescence intensity (a.u.)
CAGAGATGTAACATTTTTTTCAGTTGTTTCGCGTGTTCTTCGGAGTCACCTAGTGCAG | 8480 fluorescence intensity (a.u.)
